Some of these results come from one statement about several compounds together.
Key:
Alternaria solani = test: Activity against early blight of tomatoes caused by Alternaria solani (protective spray); format: in vivo; conditions: 250 ppm active compound; tomato plants cultivar Golden Queen; visual assessment after 5 days; untreated plants 90% infected
[1] = tested on: Pyrenophora [syn. Drechslera] teres; test: Activity against net blotch of barley caused by Pyrenophora teres, 1 day protective application; format: in vivo; conditions: 250 ppm active compound; barley seedlings cultivar Hanna; visual assessment after 6 days, % infection of the entire leaf area; untreated plants 90% infected

SMILES | infection level (Alternaria solani) | infection level [1]
CCC(COC)Nc1c(-c2c(F)cc(F)cc2F)c(Cl)nc2ncnn12 (centres unmarked) [I-1] | not more than 15% | not more than 10%
CCOCC(CC)Nc1c(-c2c(F)cc(F)cc2F)c(Cl)nc2ncnn12 (centres unmarked) [I-2] | not more than 15% | not more than 10%
CCOCC(C)Nc1c(-c2c(F)cc(F)cc2F)c(Cl)nc2ncnn12 (centres unmarked) [I-3] | not more than 15% | 
CC(COC(C)(C)C)Nc1c(-c2c(F)cc(F)cc2F)c(Cl)nc2ncnn12 (centres unmarked) [I-4] | not more than 15% | 
CC(C)COCC(C)Nc1c(-c2c(F)cc(F)cc2F)c(Cl)nc2ncnn12 (centres unmarked) [I-5] | not more than 15% | 
CCCOCC(C)Nc1c(-c2c(F)cc(F)cc2F)c(Cl)nc2ncnn12 (centres unmarked) [I-6] | not more than 15% | not more than 10%
CCOCC(CC)Nc1c(-c2c(F)cccc2Cl)c(Cl)nc2ncnn12 (centres unmarked) [I-8] |  | not more than 10%
CCOCC(CC)Nc1c(-c2ccc(OC)cc2Cl)c(Cl)nc2ncnn12 (centres unmarked) [I-9] | not more than 15% | not more than 10%
CC(C)(C)[C@@H](CO)Nc1c(-c2c(F)cc(F)cc2F)c(Cl)nc2ncnn12 [I-14] | not more than 15% | not more than 10%
CCC(CO)Nc1c(-c2c(F)cc(F)cc2F)c(Cl)nc2ncnn12 (centres unmarked) [I-15] |  | not more than 10%
CC(Nc1c(-c2c(F)cc(F)cc2F)c(Cl)nc2ncnn12)C(C)(C)O (centres unmarked) [I-16] | not more than 15% | not more than 10%
CCC(COC(C)=O)Nc1c(-c2c(F)cc(F)cc2F)c(Cl)nc2ncnn12 (centres unmarked) [I-17] |  | not more than 10%
CCC(=O)OCC(CC)Nc1c(-c2c(F)cc(F)cc2F)c(Cl)nc2ncnn12 (centres unmarked) [I-18] |  | not more than 10%
CCC(COC(=O)C(C)C)Nc1c(-c2c(F)cc(F)cc2F)c(Cl)nc2ncnn12 (centres unmarked) [I-19] |  | not more than 10%
CC(=O)OCC(Nc1c(-c2c(F)cc(F)cc2F)c(Cl)nc2ncnn12)C(C)C (centres unmarked) [I-20] | not more than 15% | not more than 10%
CCC(=O)OCC(Nc1c(-c2c(F)cc(F)cc2F)c(Cl)nc2ncnn12)C(C)C (centres unmarked) [I-21] | not more than 15% | not more than 10%
CC(C)C(=O)OCC(Nc1c(-c2c(F)cc(F)cc2F)c(Cl)nc2ncnn12)C(C)C (centres unmarked) [I-22] | not more than 15% | not more than 10%
CC(=O)OC(C)C(C)Nc1c(-c2c(F)cc(F)cc2F)c(Cl)nc2ncnn12 (centres unmarked) [I-23] |  | not more than 10%
CCC(=O)OC(C)C(C)Nc1c(-c2c(F)cc(F)cc2F)c(Cl)nc2ncnn12 (centres unmarked) [I-24] |  | not more than 10%
CC(C)C(=O)OC(C)C(C)Nc1c(-c2c(F)cc(F)cc2F)c(Cl)nc2ncnn12 (centres unmarked) [I-25] | not more than 15% | 
CC(=O)OCC(C)Nc1c(-c2c(F)cc(F)cc2F)c(Cl)nc2ncnn12 (centres unmarked) [I-29] | not more than 15% | 
CCCC(CO)Nc1c(-c2c(F)cc(F)cc2F)c(Cl)nc2ncnn12 (centres unmarked) [I-33] | not more than 15% | not more than 10%
CCCC(COC(C)=O)Nc1c(-c2c(F)cc(F)cc2F)c(Cl)nc2ncnn12 (centres unmarked) [I-34] | not more than 15% | not more than 10%
CCCC(COC(=O)CC)Nc1c(-c2c(F)cc(F)cc2F)c(Cl)nc2ncnn12 (centres unmarked) [I-35] | not more than 15% | not more than 10%
CCCC(COC(=O)C(C)C)Nc1c(-c2c(F)cc(F)cc2F)c(Cl)nc2ncnn12 (centres unmarked) [I-36] | not more than 15% | not more than 10%
CCCC(CO)Nc1c(-c2c(Cl)cccc2OC)c(Cl)nc2ncnn12 (centres unmarked) [I-37] | not more than 15% | not more than 10%

SMILES | infection level (Alternaria solani) | infection level [1]
COc1cccc(Cl)c1-c1c(Cl)nc2ncnn2c1NC(CO)C(C)C (centres unmarked) [I-38] | not more than 15% | not more than 10%
COc1cccc(Cl)c1-c1c(Cl)nc2ncnn2c1NC(C)C(C)O (centres unmarked) [I-39] | not more than 15% | not more than 10%
COc1cccc(Cl)c1-c1c(Cl)nc2ncnn2c1NC(C)C(C)(C)O (centres unmarked) [I-40] | not more than 15% | not more than 10%
CCCC(CO)Nc1c(-c2c(F)cccc2Cl)c(Cl)nc2ncnn12 (centres unmarked) [I-43] | not more than 15% | 
CC(C)C(CO)Nc1c(-c2c(F)cccc2Cl)c(Cl)nc2ncnn12 (centres unmarked) [I-44] | not more than 15% | not more than 10%
CC(O)C(C)Nc1c(-c2c(F)cccc2Cl)c(Cl)nc2ncnn12 (centres unmarked) [I-45] | not more than 15% | not more than 10%
CC(Nc1c(-c2c(F)cccc2Cl)c(Cl)nc2ncnn12)C(C)(C)O (centres unmarked) [I-46] | not more than 15% | 
CC(Cl)C(=O)OCC(Nc1c(-c2c(F)cc(F)cc2F)c(Cl)nc2ncnn12)C(C)C (centres unmarked) [I-55] | not more than 15% | 
CC(C)C(COC(=O)C(F)F)Nc1c(-c2c(F)cc(F)cc2F)c(Cl)nc2ncnn12 (centres unmarked) [I-56] | not more than 15% | 
CC(C)CC(=O)OCC(Nc1c(-c2c(F)cc(F)cc2F)c(Cl)nc2ncnn12)C(C)C (centres unmarked) [I-57] | not more than 15% | 
CC(=O)OCC(Nc1c(-c2c(F)cc(F)cc2F)c(Cl)nc2ncnn12)C(C)(C)C (centres unmarked) [I-65] | not more than 15% | 
CCC(=O)OCC(Nc1c(-c2c(F)cc(F)cc2F)c(Cl)nc2ncnn12)C(C)(C)C (centres unmarked) [I-66] | not more than 15% | 
CC(C)C(CO)Nc1c(-c2c(F)cc(F)cc2F)c(Cl)nc2ncnn12 (centres unmarked) [I-71] |  | not more than 10%
CSCC(C)(C)Nc1c(-c2c(F)cc(F)cc2F)c(Cl)nc2ncnn12 [I-73] | not more than 15% | 
CCCC(COC(C)=O)Nc1c(-c2ccc(OC)cc2Cl)c(Cl)nc2ncnn12 (centres unmarked) [I-74] | not more than 15% | not more than 10%
CCCC(COC(=O)CC)Nc1c(-c2ccc(OC)cc2Cl)c(Cl)nc2ncnn12 (centres unmarked) [I-75] | not more than 15% | 
CCCC(COC(=O)C(C)C)Nc1c(-c2ccc(OC)cc2Cl)c(Cl)nc2ncnn12 (centres unmarked) [I-76] | not more than 15% | not more than 10%
COc1ccc(-c2c(Cl)nc3ncnn3c2NC(COC(C)=O)C(C)C)c(Cl)c1 (centres unmarked) [I-77] | not more than 15% | not more than 10%
CCC(=O)OCC(Nc1c(-c2ccc(OC)cc2Cl)c(Cl)nc2ncnn12)C(C)C (centres unmarked) [I-78] | not more than 15% | 
COc1ccc(-c2c(Cl)nc3ncnn3c2NC(COC(=O)C(C)C)C(C)C)c(Cl)c1 (centres unmarked) [I-79] | not more than 15% | 
COc1ccc(-c2c(Cl)nc3ncnn3c2NC(C)C(C)OC(C)=O)c(Cl)c1 (centres unmarked) [I-80] | not more than 15% | 
COc1ccc(-c2c(Cl)nc3ncnn3c2NC(C)C(C)(C)OC(C)=O)c(Cl)c1 (centres unmarked) [I-83] | not more than 15% | 
CCC(=O)OC(C)(C)C(C)Nc1c(-c2ccc(OC)cc2Cl)c(Cl)nc2ncnn12 (centres unmarked) [I-84] | not more than 15% | 
CC(=O)OCC(Nc1c(-c2c(F)cccc2Cl)c(Cl)nc2ncnn12)C(C)C (centres unmarked) [I-95] | not more than 15% | 
CCC(=O)OCC(Nc1c(-c2c(F)cccc2Cl)c(Cl)nc2ncnn12)C(C)C (centres unmarked) [I-96] | not more than 15% | 
CC(C)C(=O)OCC(Nc1c(-c2c(F)cccc2Cl)c(Cl)nc2ncnn12)C(C)C (centres unmarked) [I-97] | not more than 15% | 

From patent US20070270311A1, “6-Phenyl-7-Aminotriazolopyrimidines, Processes For Their Preparation And Their Use For Controlling Harmful Fungi, And Also Compositions Comprising Them” (BASF AKTIENGESELLSCHAFT, priority 2004, published 2007)
